Counter-ions that a name gives are not always drawn. This is one part of the list. Hit calls seldom repeat between salt and free forms of one compound.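 In K562 cells expressing nanoluciferase-fused kinases, luminescence was recorded at 4 h intervals between 2 and 18 h, normalized as percent of control with DMSO at 100% and a positive control at 0%. A significant (2 sigma) signal drop marks a time point as decreased. The authors' rule for a hit is not shown and takes in more than the number of time points.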
Columns and labels:
Test in all cases: number of time points (of 5) at which kinase-Nluc abundance scored as decreased, DMSO-normalised (count); higher = more persistent destabilization
Settings in all cases: K562; 2-18 h
[1] = target: CAMK2A (UniProt Q9UQM7)
[2] = target: CAMK2G (UniProt Q13555)
[3] = target: CDK10 (UniProt Q15131)
[4] = target: CDK2 (UniProt P24941)
[5] = target: CDK3 (UniProt Q00526)
[6] = target: CDK5 (UniProt Q00535)
[7] = target: CDK6 (UniProt Q00534)
[8] = target: CSF1R (UniProt P07333)
[9] = target: CSK (UniProt P41240)
[10] = target: CSNK1A1 (UniProt P48729)
[11] = target: CSNK1D (UniProt P48730)
[12] = target: DDR1 (UniProt Q08345)
[13] = target: DYRK1B (UniProt Q9Y463)
[14] = target: DYRK2 (UniProt Q92630)
[15] = target: EGFR (UniProt P00533)
[16] = target: EGFR_G719S (UniProt P00533)
[17] = target: EGFR_G719S_T790M (UniProt P00533)
[18] = target: EGFR_L718V (UniProt P00533)
[19] = target: EGFR_L858R (UniProt P00533)
[20] = target: CHEK2 (UniProt O96017)

Chains of the proteins cited; added tags and fusions are not shown. Lines headed by an entry give the natural chain unless they say otherwise; changes in a name come on top.
UniProt Q9UQM7, whole entry: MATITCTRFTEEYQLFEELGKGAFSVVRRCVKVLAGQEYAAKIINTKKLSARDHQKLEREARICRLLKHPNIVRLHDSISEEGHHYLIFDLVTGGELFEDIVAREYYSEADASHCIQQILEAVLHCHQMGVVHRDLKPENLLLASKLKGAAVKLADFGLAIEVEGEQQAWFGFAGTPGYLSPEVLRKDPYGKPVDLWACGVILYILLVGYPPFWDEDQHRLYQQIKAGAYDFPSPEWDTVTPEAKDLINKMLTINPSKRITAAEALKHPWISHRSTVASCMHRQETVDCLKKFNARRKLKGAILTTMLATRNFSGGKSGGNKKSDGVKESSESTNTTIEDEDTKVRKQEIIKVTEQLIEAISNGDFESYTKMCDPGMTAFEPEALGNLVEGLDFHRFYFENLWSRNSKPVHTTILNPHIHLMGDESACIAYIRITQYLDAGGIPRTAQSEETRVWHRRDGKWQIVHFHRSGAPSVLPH
UniProt Q13555: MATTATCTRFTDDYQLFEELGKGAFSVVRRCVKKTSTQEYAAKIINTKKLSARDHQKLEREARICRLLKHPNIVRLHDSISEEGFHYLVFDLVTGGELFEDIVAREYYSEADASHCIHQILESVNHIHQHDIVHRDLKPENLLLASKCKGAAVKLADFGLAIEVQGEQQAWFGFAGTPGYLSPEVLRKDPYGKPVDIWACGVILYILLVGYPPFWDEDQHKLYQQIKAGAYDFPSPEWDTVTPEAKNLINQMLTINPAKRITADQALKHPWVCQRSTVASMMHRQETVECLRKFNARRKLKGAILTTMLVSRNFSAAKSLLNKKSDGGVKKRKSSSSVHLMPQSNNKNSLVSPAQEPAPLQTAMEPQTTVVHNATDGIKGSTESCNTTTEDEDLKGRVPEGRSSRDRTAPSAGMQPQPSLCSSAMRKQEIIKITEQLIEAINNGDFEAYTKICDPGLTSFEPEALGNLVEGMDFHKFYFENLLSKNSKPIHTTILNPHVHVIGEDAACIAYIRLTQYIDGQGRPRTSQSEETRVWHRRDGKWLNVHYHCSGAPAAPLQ
UniProt Q15131: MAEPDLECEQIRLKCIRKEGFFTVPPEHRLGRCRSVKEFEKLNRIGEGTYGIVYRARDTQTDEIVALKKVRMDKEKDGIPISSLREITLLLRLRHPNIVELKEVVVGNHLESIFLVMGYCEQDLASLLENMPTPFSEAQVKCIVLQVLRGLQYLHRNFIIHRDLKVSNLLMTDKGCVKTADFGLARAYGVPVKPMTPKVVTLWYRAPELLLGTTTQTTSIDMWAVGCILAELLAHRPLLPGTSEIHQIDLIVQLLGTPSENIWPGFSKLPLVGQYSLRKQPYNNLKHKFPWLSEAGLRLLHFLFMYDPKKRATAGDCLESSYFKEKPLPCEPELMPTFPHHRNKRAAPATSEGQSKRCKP
UniProt Q00526: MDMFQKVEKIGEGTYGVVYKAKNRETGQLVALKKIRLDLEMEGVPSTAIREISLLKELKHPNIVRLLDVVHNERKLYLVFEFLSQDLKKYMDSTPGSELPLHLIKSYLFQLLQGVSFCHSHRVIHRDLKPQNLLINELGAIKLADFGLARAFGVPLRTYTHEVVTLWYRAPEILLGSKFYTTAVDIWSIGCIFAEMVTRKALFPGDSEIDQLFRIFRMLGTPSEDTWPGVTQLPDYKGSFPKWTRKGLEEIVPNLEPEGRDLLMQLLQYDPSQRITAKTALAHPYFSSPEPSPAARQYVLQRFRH
UniProt Q00535, whole entry, looked up: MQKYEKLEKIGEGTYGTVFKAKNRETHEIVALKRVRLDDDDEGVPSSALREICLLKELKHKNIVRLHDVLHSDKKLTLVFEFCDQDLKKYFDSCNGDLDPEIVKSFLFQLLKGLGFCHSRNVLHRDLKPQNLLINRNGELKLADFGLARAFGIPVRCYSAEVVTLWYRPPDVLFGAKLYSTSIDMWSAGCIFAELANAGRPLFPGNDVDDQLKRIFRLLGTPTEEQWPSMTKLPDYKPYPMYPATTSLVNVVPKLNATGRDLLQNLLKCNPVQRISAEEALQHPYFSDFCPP
UniProt Q00534, whole entry: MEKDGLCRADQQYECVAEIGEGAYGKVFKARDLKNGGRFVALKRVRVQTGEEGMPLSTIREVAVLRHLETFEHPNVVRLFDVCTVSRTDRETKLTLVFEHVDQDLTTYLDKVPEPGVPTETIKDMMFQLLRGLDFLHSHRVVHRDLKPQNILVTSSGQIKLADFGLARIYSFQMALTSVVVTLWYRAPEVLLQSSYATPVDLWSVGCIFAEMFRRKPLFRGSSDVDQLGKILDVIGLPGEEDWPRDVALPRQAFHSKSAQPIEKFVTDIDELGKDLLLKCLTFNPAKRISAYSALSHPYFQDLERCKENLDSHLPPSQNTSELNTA
UniProt P07333, whole entry: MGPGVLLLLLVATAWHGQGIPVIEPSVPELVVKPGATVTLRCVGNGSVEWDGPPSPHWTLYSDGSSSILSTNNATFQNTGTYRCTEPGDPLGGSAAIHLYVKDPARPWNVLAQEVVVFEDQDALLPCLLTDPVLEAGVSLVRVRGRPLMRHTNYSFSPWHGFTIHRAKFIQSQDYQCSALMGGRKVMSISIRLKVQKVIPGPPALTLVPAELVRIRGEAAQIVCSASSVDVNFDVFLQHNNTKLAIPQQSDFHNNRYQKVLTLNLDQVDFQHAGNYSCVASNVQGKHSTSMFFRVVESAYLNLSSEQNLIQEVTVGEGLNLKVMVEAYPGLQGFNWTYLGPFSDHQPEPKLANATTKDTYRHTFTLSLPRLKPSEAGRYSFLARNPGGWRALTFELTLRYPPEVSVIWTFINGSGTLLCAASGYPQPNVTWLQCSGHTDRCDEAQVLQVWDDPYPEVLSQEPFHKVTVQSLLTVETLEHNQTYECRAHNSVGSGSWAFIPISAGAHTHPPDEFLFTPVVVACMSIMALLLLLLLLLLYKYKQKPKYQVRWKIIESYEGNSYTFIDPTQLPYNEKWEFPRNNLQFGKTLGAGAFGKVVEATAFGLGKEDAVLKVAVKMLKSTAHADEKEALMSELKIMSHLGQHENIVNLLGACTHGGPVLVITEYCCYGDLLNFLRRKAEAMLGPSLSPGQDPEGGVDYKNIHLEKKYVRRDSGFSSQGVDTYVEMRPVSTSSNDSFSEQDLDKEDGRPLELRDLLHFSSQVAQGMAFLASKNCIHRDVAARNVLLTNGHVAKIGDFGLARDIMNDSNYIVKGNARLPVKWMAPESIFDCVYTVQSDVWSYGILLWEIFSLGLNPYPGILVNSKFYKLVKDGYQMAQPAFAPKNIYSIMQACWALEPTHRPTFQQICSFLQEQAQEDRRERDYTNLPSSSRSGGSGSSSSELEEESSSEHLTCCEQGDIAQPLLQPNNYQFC
UniProt P41240: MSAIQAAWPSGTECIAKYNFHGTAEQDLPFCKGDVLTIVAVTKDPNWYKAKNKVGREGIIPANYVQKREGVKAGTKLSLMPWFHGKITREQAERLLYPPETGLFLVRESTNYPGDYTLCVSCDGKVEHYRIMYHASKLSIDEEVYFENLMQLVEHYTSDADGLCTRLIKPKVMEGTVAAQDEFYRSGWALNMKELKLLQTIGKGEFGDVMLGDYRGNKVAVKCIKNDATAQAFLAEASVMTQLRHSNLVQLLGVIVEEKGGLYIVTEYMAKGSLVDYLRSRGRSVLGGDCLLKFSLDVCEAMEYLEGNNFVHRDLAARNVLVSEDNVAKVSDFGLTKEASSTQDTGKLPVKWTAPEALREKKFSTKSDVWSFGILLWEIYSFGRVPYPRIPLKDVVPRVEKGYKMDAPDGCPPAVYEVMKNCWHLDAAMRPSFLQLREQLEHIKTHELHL
UniProt P48729: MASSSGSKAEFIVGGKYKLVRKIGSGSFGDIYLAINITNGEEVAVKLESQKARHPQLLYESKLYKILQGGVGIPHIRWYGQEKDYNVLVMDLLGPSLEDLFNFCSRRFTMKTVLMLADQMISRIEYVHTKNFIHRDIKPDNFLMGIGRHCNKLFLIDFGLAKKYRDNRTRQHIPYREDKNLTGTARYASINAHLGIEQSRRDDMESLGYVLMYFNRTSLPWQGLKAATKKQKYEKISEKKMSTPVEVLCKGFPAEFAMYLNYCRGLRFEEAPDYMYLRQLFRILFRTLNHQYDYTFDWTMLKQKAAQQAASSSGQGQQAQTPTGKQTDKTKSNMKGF
UniProt P48730: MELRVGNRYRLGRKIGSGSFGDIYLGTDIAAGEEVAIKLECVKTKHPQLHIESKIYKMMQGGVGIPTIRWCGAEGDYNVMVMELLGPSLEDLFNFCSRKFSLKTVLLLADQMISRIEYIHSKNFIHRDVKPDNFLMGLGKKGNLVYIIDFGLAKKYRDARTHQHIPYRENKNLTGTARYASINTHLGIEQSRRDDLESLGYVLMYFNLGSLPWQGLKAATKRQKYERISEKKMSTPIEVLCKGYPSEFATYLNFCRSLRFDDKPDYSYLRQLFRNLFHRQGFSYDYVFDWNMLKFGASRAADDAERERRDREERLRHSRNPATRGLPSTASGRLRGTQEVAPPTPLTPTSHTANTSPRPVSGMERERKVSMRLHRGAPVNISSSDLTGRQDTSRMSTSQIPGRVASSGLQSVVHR
UniProt Q08345: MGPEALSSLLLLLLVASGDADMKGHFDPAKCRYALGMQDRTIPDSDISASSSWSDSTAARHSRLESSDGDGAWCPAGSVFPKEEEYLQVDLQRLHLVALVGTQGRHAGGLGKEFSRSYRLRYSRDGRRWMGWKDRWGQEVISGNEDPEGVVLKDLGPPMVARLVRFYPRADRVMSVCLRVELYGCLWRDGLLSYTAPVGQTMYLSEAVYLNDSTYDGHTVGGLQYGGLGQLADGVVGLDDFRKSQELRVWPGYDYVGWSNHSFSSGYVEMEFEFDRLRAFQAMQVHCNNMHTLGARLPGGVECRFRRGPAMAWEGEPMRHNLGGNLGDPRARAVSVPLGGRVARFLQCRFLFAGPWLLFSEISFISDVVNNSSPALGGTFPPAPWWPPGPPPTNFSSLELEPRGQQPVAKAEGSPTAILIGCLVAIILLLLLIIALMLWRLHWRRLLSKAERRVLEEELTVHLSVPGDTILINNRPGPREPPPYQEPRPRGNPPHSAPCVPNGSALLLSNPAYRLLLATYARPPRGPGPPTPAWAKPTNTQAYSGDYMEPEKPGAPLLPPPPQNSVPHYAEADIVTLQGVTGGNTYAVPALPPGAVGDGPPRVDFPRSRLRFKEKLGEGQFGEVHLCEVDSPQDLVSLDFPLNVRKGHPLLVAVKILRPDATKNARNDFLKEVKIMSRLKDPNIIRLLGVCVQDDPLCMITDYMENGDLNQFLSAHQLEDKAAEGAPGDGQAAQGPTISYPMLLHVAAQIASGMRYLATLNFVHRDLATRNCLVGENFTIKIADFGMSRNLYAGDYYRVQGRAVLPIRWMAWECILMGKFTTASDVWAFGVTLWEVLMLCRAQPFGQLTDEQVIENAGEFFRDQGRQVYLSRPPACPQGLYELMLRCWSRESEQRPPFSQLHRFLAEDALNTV
UniProt Q92630: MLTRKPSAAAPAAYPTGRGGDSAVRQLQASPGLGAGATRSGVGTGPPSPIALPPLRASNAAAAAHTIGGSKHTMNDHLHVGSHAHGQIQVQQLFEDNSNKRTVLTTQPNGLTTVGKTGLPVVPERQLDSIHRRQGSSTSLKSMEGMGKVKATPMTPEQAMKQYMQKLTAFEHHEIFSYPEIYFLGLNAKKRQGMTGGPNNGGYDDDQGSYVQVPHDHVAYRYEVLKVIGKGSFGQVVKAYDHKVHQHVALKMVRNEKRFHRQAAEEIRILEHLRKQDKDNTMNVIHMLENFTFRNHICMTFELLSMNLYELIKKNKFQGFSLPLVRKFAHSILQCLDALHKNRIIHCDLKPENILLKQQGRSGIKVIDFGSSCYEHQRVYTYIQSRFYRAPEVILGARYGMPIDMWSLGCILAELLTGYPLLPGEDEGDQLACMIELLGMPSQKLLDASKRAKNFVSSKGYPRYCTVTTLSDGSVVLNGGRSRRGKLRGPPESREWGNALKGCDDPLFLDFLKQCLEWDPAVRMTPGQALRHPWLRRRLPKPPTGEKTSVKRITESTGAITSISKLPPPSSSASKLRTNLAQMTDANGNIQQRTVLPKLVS
UniProt O96017, whole entry: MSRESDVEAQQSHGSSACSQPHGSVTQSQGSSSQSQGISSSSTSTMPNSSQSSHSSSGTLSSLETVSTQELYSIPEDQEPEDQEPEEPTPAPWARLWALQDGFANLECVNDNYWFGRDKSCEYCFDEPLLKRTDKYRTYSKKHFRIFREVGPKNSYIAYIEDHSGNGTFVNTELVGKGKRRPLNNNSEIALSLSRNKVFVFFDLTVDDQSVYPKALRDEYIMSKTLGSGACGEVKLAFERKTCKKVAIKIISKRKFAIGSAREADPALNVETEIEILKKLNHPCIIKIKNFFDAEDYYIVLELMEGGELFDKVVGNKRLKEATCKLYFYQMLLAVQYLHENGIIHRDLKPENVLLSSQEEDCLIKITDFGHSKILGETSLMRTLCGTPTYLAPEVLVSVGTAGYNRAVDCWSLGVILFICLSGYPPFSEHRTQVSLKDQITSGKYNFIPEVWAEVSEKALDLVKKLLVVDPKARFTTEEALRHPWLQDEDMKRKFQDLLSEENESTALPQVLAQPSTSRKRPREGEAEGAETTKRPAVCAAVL

Measured: number of time points

C[C@H](CN(C)C)Oc1nc(Nc2cc3cccc(Cl)c3cn2)cnc1C#N (10 µM)
0: [1] | [2] | [3] | [4] | [5] | [6] | [7] | [8] | [9] | [10] | [11] | [12] | [13] | [14] | [15] | [16] | [17] | [18] | [19]

O=C(Nc1ccc(-c2ccnc(Nc3ccc(N4CCOCC4)cc3)n2)cc1)C1CCCN1 (stereo not drawn) (10 µM)
0: [1] | [2] | [3] | [5] | [6] | [7] | [20] | [8] | [9] | [10] | [11] | [12] | [13] | [14] | [15] | [16] | [17] | [18] | [19]

CC(C)c1cnn2c(NCc3ccccc3)cc(NC[C@H]3CCNC[C@@H]3O)nc12 [Samuraciclib (hydrochloride)] (10 µM)
0: [1] | [2] | [3] | [5] | [6] | [7] | [20] | [8] | [9] | [10] | [11] | [12] | [13] | [14] | [15] | [16] | [17] | [18] | [19]

CCN(CCCOc1ccc2c(Nc3cc(CC(=O)Nc4cccc(F)c4)[nH]n3)ncnc2c1)CCOP(=O)(O)O [Barasertib] (10 µM)
0: [1] | [2] | [3] | [4] | [5] | [7] | [20] | [8] | [9] | [10] | [11] | [12] | [13] | [14] | [15] | [16] | [17] | [18] | [19]

CC(C)Oc1cc(Nc2nc(N[C@@H](C)c3ccc(F)cn3)ncc2Cl)n[nH]1 (10 µM)
0: [1] | [2] | [3] | [4] | [5] | [7] | [20] | [8] | [9] | [10] | [11] | [12] | [13] | [14] | [15] | [16] | [17] | [18] | [19]

CC[C@H](CO)Nc1nc(NCc2ccccc2)c2ncn(C(C)C)c2n1 [Seliciclib] (10 µM)
0: [1] | [2] | [3] | [7] | [20] | [8] | [9] | [10] | [11] | [12] | [13] | [14] | [15] | [16] | [17] | [18] | [19]

Nc1nc(N)c(N=O)c(OCC2CCCCC2)n1 (10 µM)
0: [1] | [2] | [3] | [5] | [6] | [7] | [20] | [8] | [9] | [10] | [11] | [12] | [13] | [14] | [15] | [16] | [17] | [18] | [19]

NC(=O)c1ccc2nc(-c3ccc(Oc4ccc(Cl)cc4)cc3)[nH]c2c1 (10 µM)
0: [1] | [2] | [3] | [4] | [5] | [6] | [7] | [8] | [9] | [10] | [11] | [12] | [13] | [14] | [15] | [16] | [17] | [18] | [19]

Cc1[nH]c(/C=C2\C(=O)Nc3ccc(S(=O)(=O)Cc4c(Cl)cccc4Cl)cc32)c(C)c1C(=O)N1CCC[C@@H]1CN1CCCC1 (2.5 µM)
0: [1] | [3] | [4] | [5] | [6] | [7] | [20] | [8] | [9] | [10] | [11] | [12] | [13] | [14] | [15] | [16] | [17] | [18] | [19]

COc1cc2c(Nc3ccc(NC(=O)c4ccccc4)cc3)ncnc2cc1OCCCN1CCOCC1 (10 µM)
0: [1] | [3] | [4] | [5] | [7] | [8] | [9] | [10] | [11] | [12] | [13] | [14] | [15] | [16] | [17] | [18] | [19]
1: [2] | [20]

COc1cc2ncnc(Nc3cccc(O)c3)c2cc1OC (10 µM)
0: [1] | [6] | [7] | [9]
2: [2] | [11] | [12] | [15] | [16] | [17] | [19]
1: [3] | [5] | [20] | [8] | [10] | [13] | [18]
3: [14]

Nc1nc(OCC2CCCCC2)c2[nH]cnc2n1 (10 µM)
0: [1] | [2] | [3] | [5] | [6] | [7] | [20] | [8] | [9] | [10] | [11] | [12] | [13] | [14] | [15] | [16] | [17] | [18] | [19]

CN1CCN(c2ccc(C(=O)Nc3n[nH]c4ccc(Cc5cc(F)cc(F)c5)cc34)c(NC3CCOCC3)c2)CC1 [Entrectinib] (2.5 µM)
0: [1] | [2] | [3] | [4] | [5] | [7] | [20] | [8] | [9] | [11] | [12] | [13] | [14] | [15] | [16] | [17] | [18] | [19]

c1cc(OCCN2CCCCC2)cc(-c2n[nH]c3ccc(-c4nnc[nH]4)cc23)c1 [CC-401 (hydrochloride)] (10 µM)
0: [1] | [2] | [3] | [5] | [6] | [7] | [20] | [8] | [9] | [10] | [11] | [12] | [13] | [14] | [15] | [16] | [17] | [18] | [19]

NC(=O)c1ccc(-c2nc(-c3ccccn3)c(-c3ccc4c(c3)OCO4)[nH]2)cc1 (10 µM)
0: [1] | [2] | [3] | [5] | [6] | [7] | [20] | [8] | [9] | [10] | [11] | [12] | [13] | [14] | [15] | [16] | [17] | [18] | [19]

Nc1ncnc2c1c(-c1cccc(OCc3ccccc3)c1)cn2C1CC(CN2CCCC2)C1 (stereo not drawn) (2.5 µM)
0: [1] | [2] | [3] | [4] | [5] | [7] | [20] | [8] | [9] | [10] | [11] | [12] | [13] | [14]

Cc1nc(-c2cnc(NC(C)C)n(C)c2=O)ccc1Oc1ccnc(-c2cnn(C)c2)c1 (2.5 µM)
0: [1] | [2] | [3] | [4] | [5] | [6] | [7] | [20] | [9] | [10] | [11] | [12] | [13] | [15] | [16] | [17] | [18] | [19]
1: [14]

Cc1ncc(-c2ccnc(Nc3ccc(S(C)(=O)=O)cc3)n2)n1C(C)C (2.5 µM)
2: [14]
3: [20] | [16]
0: [1] | [2] | [3] | [5] | [6] | [7] | [8] | [9] | [10] | [11] | [12] | [13] | [15] | [17] | [18] | [19]

COCCNCCc1cccc(Nc2ncc3c(n2)-c2ccccc2[C@H](c2ccccc2F)C3)c1 [Derazantinib] (2.5 µM)
0: [1] | [2] | [3] | [4] | [5] | [6] | [7] | [20] | [9] | [10] | [11] | [12] | [13] | [14] | [17] | [18] | [19]
3: [16]
1: [15]
